Reference: patent US12534438B2, “Cannabinoid derivative as a pharmaceutically active compound and method of preparation thereof” (priority 2020, dated 2026)

Test system: mouse model of generalised seizure (tonic hind limb extensor convulsions)
Experiment: Maximal electroshock seizure threshold (MEST) test in the mouse
Conditions: diazepam 2.5 mg/kg i.p., 30 min post dose, current producing tonic hind limb extension in 50% of animals
Method: The efficacy of the cannabinoid derivative according to formula (I) was tested in a mouse model of generalised seizure, the maximal electroshock seizure threshold (MEST) test.
The maximal electroshock seizure threshold (MEST) test is widely utilized preclinically to evaluate pro- or anti-convulsant properties of test compounds (Loscher et al., 1991).
In the MEST test the ability of a drug to alter the seizure threshold current required to induce hind limb tonic extensor convulsions is measured according to an “up and down” method of shock titration (Kimball et al., 1957). An increase in seizure threshold is indicative of anti-convulsant effect.
The ability of a test compound to alter the stimulus intensity, expressed as current (mA), required to induce the presence of tonic hind limb extensor convulsions, is assessed in the MEST.
Naïve mice were acclimatised to the procedure room in their home cages for up to 7 days, with food and water available ad libitum.
All animals were weighed at the beginning of the study and randomly assigned to treatment groups based on a mean distribution of body weight across groups. […]
Test compound effects were also calculated as percentage change in CC50 from the vehicle control group.
Significant difference between drug-treated animals and controls were assessed according to Litchfield and Wilcoxon (1949).

CN1C(=O)CN=C(c2ccccc2)c2cc(Cl)ccc21 [Diazepam, diazepam, reference compound]
CC50 +/- SEM: 78.5 ± 1.0 mA
CC50 +/- SEM (listed as diazepam): 78.5 mA
